# According to patent US20240229101A1, “METHOD FOR DETECTING INTRACELLULAR ACTIVITY OF CYP ENZYMES” (NATIONAL INSTITUTE OF ADVANCED INDUSTRIAL SCIENCE AND …, priority 2021, published 2024):
# At least one compound was matched to its structure with a doubt left.
# How the values were obtained:
# [1] = system: reduced heme b, mainly reduced cytochrome b5; experiment: Raman observation of HepaRG hepatocytes, reduced heme b signal (675 cm^-1); assay type: cell-based, human
# Description: A Raman image of the cell group cultured using the above-mentioned method (1) or (2) was constructed by quantitatively measuring the Raman signal using Raman spectroscopy. Here, the “observation” in the present specification includes both detecting a Raman scattering signal of a cell group and acquiring and observing a Raman image of a cell group. […] Details are explained in each Example.
# The culture medium of the cultured cell group was removed, and the cell group was washed twice with PBS. An observation solution (Live Cell Imaging Solution (A14291DJ, Thermo Fisher Scientific)) was added to the washed cell group. The thus-treated cell group was subjected to Raman observation using the Raman microscope (Non Patent Literature 3) described using FIG. 1 (FIG. 6, FIG. 9 to 11, FIG. 13 to FIG. 21, FIG. 23 to FIG. 26).
# A 40× water immersion objective lens (CFI Apochromat Lambda S 40XC WI) equipped in a Raman microscope was used to excite the Raman scattered light of the cell group and to detect the Raman scattering signal. The excitation light of the Raman scattered light of the cell group was irradiated by condensing a laser beam with a wavelength of 532 nm into a straight line with a predetermined length (hereinafter referred to as a line) using the water immersion objective lens.
# The flow of detection of Raman scattered light of a cell group that was generated by excitation with excitation light is explained. […] The Raman scattering signal imaged on the slit is then separated by diffraction grating inside the spectroscope and detected by a cooling-type CCD image sensor (PIXIS 400B, Princeton Instruments) used as a photodetector. Raman scattering signals scattered from everywhere on the condensed line can be measured simultaneously and independently by different pixels on the CCD. […] Respective Raman signals were simultaneously detected in an about 133.3 μm region on the direction of the condensed line.
# [2] = system: reduced heme c, mainly reduced cytochrome c; experiment: Raman observation of HepaRG hepatocytes, reduced heme c signal (600 cm^-1); assay type: cell-based, human; settings: 4 μM from Day 6, measured on Day 8 (FIG. 25)
smiles,measurement,setting,value
CO[C@H]1/C=C/O[C@@]2(C)Oc3c(C)c(O)c4c(O)c(c(/C=N/N5CCN(C)CC5)c(O)c4c3C2=O)NC(=O)/C(C)=C\C=C\[C@H](C)[C@H](O)[C@@H](C)[C@@H](O)[C@@H](C)[C@H](OC(C)=O)[C@@H]1C [Rifampicin],"Raman signal of reduced heme protein, changes in signal intensity","[1]; HepaRG hepatocytes, 4 μM, 48 hr, wavenumbers 600, 675, 750 cm^-1 (FIG. 11)",could not be confirmed
same,Raman signal intensity per unit cell at wavenumber 675 cm^-1 (cytochrome b5),"[1]; HepaRG, 4 μM from Day 6, measured on Day 8 (FIG. 25)",did not change
same,intensity change of the Raman signal at a wavenumber of 675 cm^-1,"[1]; HepaRG, induced cells vs non-induced cells, 4 μM (FIG. 11)",no significant difference
same,Raman signal intensity per unit cell at wavenumber 600 cm^-1 (cytochrome C),[2],did not change
